Drawing on publication PMC7082061 (PLoS Pathogens, 2020), this text covers binding for one substance.

Results are given in words; binding and its absence hold for the method and conditions named.

The target in this experiment is MOKV G_(1-436)* (soluble Mokola virus glycoprotein G ectodomain, fusion loops replaced by hydrophilic sequences) (Mokola virus) (UniProt P0C572). The experiment in a line: crystal structure; both purified.

On to “MOKV G_(1-436)* (soluble Mokola virus glycoprotein G ectodomain, fusion loops replaced by hydrophilic sequences) (from UniProt P0C572 20-455) (domain or fragment)”, for which the binding entry is “no binding”.
